In article PMC5352752, “Discovery and characterization of an F420-dependent glucose-6-phosphate dehydrogenase (Rh-FGD1) from Rhodococcus jostii RHA1” (Applied Microbiology and Biotechnology, 2016):
No constants are given. Whether binding was seen depends on the method and setting. Some results given as binding are weak or reduced against the parent protein; the word gives no strength. Sequences can lack the tags named with a protein.

Biological target: F420-dependent glucose-6-phosphate dehydrogenase Rh-FGD1 from Rhodococcus jostii RHA1 (Rhodococcus jostii RHA1) (UniProt Q0RVH7)
Assay: crystal structure; native Rh-FGD1 apo form, sitting-drop vapor diffusion at 20 °C, 0.16 M ammonium sulfate, 0.08 M sodium acetate pH 4.6, 20% PEG 4000, 20% glycerol; two monomers in the asymmetric unit; both purified

B1: F420-dependent glucose-6-phosphate dehydrogenase Rh-FGD1 from Rhodococcus jostii RHA1 (enzyme, UniProt Q0RVH7 1-335, looked up)
chain: MVIKFGYKASAEQFGPRELVELGVLAEAHGMDSATVSDHFQPWRHEGGHAPFSLAWMTAVGERTSRLQLGTSVMTPTFRYNPAVVAQAFATMGCLYPGRIMLGVGTGEALNEIATGFAGEWPEFKERFARLREAVALMRELWLGDRVDFEGNYYKTVGASIYDVPEGGIPVYIAAGGPVVARYAGRSGDGFICTSGKGMELYTEKLMPAVAEGAEKADRDVAEIDKMIEIKISYDTDPELALENTRFWAPLSLTPEQKHSIDDPIEMERAADALPIEQVAKRWIVASDPDEAVAQIRPYLDAGLNHLVFHAPGHDQKRFLELFQRDLAPRLRGLA
notes: each monomer is comprised of residues 1-334; The native enzyme (tag cleaved) was used for crystallization; also called RHA1_RS43115; native Rh-FGD1; source: E. coli C41(DE3), purified (HisTrap, His-SUMO tag cleaved with SUMO protease, second HisTrap, Superdex 200); not shown: His6, N-terminal, cleaved; SUMO, N-terminal, cleaved
For B1, the binding was “binds”.
